Consider 1 molecule from US20240400644A1 (ACROIMMUNE GUANGZHOU BIOTECH, published 2024).

This experiment has as its target T1, HMGB1-His tag protein (human, UniProt P09429 1-215, limits assumed).
T1 construct: Bought, HEK293 cell derived; also called human HMGB1; HMGB1-His protein; not shown: His tag
T1 sequence (looked up): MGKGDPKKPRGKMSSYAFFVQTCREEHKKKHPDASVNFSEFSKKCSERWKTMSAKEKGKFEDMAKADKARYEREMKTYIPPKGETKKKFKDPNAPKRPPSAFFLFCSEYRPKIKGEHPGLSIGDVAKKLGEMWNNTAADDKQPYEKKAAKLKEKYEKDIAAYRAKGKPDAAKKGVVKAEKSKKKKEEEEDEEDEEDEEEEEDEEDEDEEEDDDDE
Briefly: ELISA: HMGB1-His coated at 0.1 µg/mL, CD24Fc titrated 2-fold, HRP goat anti-human IgG-Fc, TMB. A general note: ELISA stands for enzyme-linked immunosorbent assay.

Results are given in words; binding and its absence hold for the method and conditions named. Some results given as binding are weak or reduced against the parent protein; the word gives no strength.

B1: CD24Fc (producing cell not stated) (Fc fusion, UniProt P25063 27-59, looked up)
chain: SETTTGTSSNSSQSTSNSGLAPNPTNATTKAAG
notes: not shown: Fc part
With B1, the binding entry is recorded as “binds”.
